{
  "source": "patent US12233147B2",
  "about": "“Method for treating keratin material” (Henkel AG & Co. KGaA, priority 2019, dated 2025)",
  "origin": "cited, not measured here",
  "settings": "25° C.",
  "data": [
    {"smiles": "CCN(Cc1cccc(S(=O)(=O)[O-])c1)c1ccc(C(=C2C=CC(=[N+](CC)Cc3cccc(S(=O)(=O)[O-])c3)C=C2)c2ccccc2S(=O)(=O)[O-])cc1.[Na+].[Na+]", "note": "[Acid Blue 9]", "values": [
      {"measurement": "solubility in water", "result": "more than 20 % by weight"}
    ]}
  ]
}
